PMC9126881
These are yes or no findings as the source states them, for the method shown. Binding seen in cells or lysates may run through a third protein. Some entries that bind do so weakly or less than the wild type.

Target: T1, period circadian protein 2 (human (endogenous in AS-BMSCs)) (UniProt O15055)
T1 sequence: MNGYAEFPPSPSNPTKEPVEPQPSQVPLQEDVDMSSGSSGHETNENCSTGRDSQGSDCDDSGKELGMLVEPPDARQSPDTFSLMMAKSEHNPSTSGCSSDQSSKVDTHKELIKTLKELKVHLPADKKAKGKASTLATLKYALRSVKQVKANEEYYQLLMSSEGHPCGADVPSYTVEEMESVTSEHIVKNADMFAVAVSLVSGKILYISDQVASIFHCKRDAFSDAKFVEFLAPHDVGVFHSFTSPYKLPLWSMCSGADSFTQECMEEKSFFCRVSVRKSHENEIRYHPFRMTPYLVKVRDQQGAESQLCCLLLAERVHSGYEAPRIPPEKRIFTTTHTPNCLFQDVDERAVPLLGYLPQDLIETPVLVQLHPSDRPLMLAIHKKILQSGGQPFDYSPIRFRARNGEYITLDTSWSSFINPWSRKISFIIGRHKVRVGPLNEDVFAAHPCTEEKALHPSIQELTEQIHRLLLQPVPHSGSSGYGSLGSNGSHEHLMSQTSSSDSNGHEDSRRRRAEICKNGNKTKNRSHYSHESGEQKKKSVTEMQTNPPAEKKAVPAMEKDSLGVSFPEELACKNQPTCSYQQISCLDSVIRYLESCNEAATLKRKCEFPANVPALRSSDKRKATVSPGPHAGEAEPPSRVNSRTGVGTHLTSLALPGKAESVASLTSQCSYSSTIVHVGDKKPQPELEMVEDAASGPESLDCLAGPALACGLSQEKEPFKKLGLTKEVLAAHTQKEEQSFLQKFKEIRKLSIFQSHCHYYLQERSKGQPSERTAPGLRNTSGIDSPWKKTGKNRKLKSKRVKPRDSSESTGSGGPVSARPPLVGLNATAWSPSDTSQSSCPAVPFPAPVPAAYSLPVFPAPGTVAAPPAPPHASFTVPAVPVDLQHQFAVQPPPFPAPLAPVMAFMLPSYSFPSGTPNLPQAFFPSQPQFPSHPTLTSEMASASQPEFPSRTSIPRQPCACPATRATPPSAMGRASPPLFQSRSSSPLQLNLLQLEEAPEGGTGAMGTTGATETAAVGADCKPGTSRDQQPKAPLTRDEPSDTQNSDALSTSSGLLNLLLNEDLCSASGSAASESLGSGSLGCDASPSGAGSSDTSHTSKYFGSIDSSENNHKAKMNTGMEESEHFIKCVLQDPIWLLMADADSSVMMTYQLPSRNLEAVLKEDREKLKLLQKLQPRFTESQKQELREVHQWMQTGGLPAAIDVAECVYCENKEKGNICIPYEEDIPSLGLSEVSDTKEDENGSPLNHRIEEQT
Experiment: co-IP; AS-BMSC lysate (100 mM Tris-HCl pH 7.4, 150 mM NaCl, 10% glycerol, 0.5% Triton X-100, protease inhibitors), precleared with protein A/G Sepharose; PER2 antibody overnight at 4 °C, protein A/G Sepharose beads 1 h, 4 washes; Western blot with PER2 and Wnt7b antibodies

binding: binds
B1: Wnt7b (protein, UniProt P56706 25-349)
chain: ALSSVVALGANIICNKIPGLAPRQRAICQSRPDAIIVIGEGAQMGINECQYQFRFGRWNCSALGEKTVFGQELRVGSREAAFTYAITAAGVAHAVTAACSQGNLSNCGCDREKQGYYNQAEGWKWGGCSADVRYGIDFSRRFVDAREIKKNARRLMNLHNNEAGRKVLEDRMQLECKCHGVSGSCTTKTCWTTLPKFREVGHLLKEKYNAAVQVEVVRASRLRQPTFLRIKQLRSYQKPMETDLVYIEKSPNYCEEDAATGSVGTQGRLCNRTSPGADGCDTMCCGRGYNTHQYTKVWQCNCKFHWCCFVKCNTCSERTEVFTCK
